Source: publication PMC7549768
No constants are given. Whether binding was seen depends on the method and setting. In cells and extracts the contact can be indirect. A result given as binding can be weak or reduced; the word gives no strength.

Biological target: T1, TBC1D21 (mouse (endogenous in sperm)) (UniProt Q9D9D3)
T1 sequence: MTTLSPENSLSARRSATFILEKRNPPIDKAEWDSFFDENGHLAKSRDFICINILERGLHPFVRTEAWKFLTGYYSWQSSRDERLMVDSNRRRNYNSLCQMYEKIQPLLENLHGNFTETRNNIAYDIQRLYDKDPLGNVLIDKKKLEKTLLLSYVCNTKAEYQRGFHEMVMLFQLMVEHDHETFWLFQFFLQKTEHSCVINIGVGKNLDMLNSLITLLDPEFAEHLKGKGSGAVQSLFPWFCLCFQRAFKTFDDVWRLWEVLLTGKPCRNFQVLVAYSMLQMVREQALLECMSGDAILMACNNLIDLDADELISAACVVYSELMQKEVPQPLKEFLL
Assay: proximity ligation; Duolink PLA on purified wild-type murine sperm fixed on slides; anti-TBC1D21 with anti-TOMM20 or anti-DNAH7 antibodies, 12 hours at 4°C; probes less than 40 nm apart give a signal; midpiece stained with Mito-tracker

## Dynein Heavy chain 7 (DNAH7) (mouse (endogenous in sperm))
  binding: binds
